Reference: US20160122788A1
No constants are given. Whether binding was seen depends on the method and setting. In cells and extracts the contact can be indirect. Some results given as binding are weak or reduced against the parent protein; the word gives no strength. Sequences can lack the tags named with a protein.

Sequences of proteins named here, by UniProt entry; tags and fusion partners are left off.
UniProt P0AGE9: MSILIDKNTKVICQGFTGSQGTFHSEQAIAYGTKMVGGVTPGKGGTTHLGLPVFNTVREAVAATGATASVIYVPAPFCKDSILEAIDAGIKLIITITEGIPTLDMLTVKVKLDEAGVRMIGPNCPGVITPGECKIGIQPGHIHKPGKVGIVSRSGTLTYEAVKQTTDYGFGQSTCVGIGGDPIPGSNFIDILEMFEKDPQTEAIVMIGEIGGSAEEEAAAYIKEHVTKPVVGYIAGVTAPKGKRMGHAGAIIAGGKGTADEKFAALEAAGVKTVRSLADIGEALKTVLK

Molecular target: Strep-tagged α-subunit (sucD) of succinyl-CoA synthetase of Escherichia coli (Escherichia coli (str. K-12 substr. MG1655)) (UniProt P0AGE9)
Experiment: co-purification by Strep-tag affinity chromatography, shown by SDS-PAGE

B1: β-subunit (sucC) of succinyl-CoA synthetase of Escherichia coli, without Strep-tag (enzyme)
chain: MNLHEYQAKQLFARYGLPAPVGYACTTPREAEEAASKIGAGPWVVKCQVHAGGRGKAGGVKVVNSKEDIRAFAENWLGKRLVTYQTDANGQPVNQILVEAATDIAKELYLGAVVDRSSRRVVFMASTEGGVEIEKVAEETPHLIHKVALDPLTGPMPYQGRELAFKLGLEGKLVQQFTKIFMGLATIFLERDLALIEINPLVITKQGDLICLDGKLGADGNALFRQPDLREMRDQSQEDPREAQAAQWELNYVALDGNIGCMVNGAGLAMGTMDIVKLHGGEPANFLDVGGGATKERVTEAFKIILSDDKVKAVLVNIFGGIVRCDLIADGIIGAVAEVGVNVPVVVRLEGNNAELGAKKLADSGLNIIAAKGLTDAAQQVVAAVEGK
binding: binds
